Measurements taken from patent US20230055705A1, “SUBSTITUTED THIOPHENE CARBOXAMIDES AND DERIVATIVES THEREOF” (Bayer Aktiengesellschaft, priority 2019, published 2023).
For part of these data: At least one read-out could not be matched to a standard name with certainty. Some entries share one result that the patent states for a list of compounds.

Assays:
[1] = system: salicylate responsive promoter sequence of the PR1 (pathogenesis-related protein I) gene (AT2G14610); experiment: Induction of defense gene expression in Arabidopsis thaliana (PR1 promoter-GFP reporter plants); type: in vivo; conditions: 3rd day after spraying, mock treated leaves set as 1.00
Method: Arabidopsis thaliana reporter plants containing the coding sequence of a green fluorescent protein (GFP) linked to the salicylate responsive promoter sequence of the PR1 (pathogenesis-related protein I) gene (AT2G14610) were grown for five days and then sprayed with compounds. On the 3rd day after spraying, plant fluorescence was assessed with a MacroFluo instrument from Leica Microsystems (Wetzlar, Germany). Fluorescences were quantified with the Meta-Morph Microscopy Automation & Image Analysis Software (Molecular Devices, Sunnyvale, Calif., United States). Background fluorescence in mock treated leaves was set as 1.00.

Alternaria alternata = Alternaria alternata in vitro cell test; type: cell-based; conditions: 20 ppm of active ingredient; 5 days incubation
Method: (§1) • Solvent: DMSO • Culture medium: 14.6 g anhydrous D-glucose (VWR), 7.1 g Mycological Peptone (Oxoid), 1.4 g granulated Yeast Extract (Merck), QSP 1 liter • Inoculum: spores suspension
(§2) Fungicides were solubilized in DMSO and the solution used to prepare the required range of concentrations. The final concentration of DMSO used in the assay was ≤[…]1%.
A spore suspension of A. alternata was prepared and diluted to the desired spore density.
(§3) Fungicides were evaluated for their ability to inhibit spore germination and mycelium growth in liquid culture assay. The compounds were added in the desired concentration to the culture medium with spores. After 5 days incubation, fungi-toxicity of compounds was determined by spectrometric measurement of mycelium growth. Inhibition of fungal growth was determined by comparing the absorbance values in wells containing the fungicides with the absorbance in control wells without fungicides.

[2] = system: Colletotrichum lindemuthianum; experiment: Colletotrichum lindemuthianum in vitro cell test; type: cell-based; conditions: 20 ppm of active ingredient; 6 days incubation
Method: as §1, §2
A spore suspension of C. lindemuthianum was prepared and diluted to the desired spore density.
as §3, with “inhibit spores” for “inhibit spore”, “After 6” for “After 5”

[3] = system: Xanthomonas campestris pv. campestris; experiment: Xanthomonas campestris pv. campestris in vitro cell test; type: cell-based; conditions: 20 ppm of active ingredient; 24 h incubation
Method: • Solvent: DMSO • Culture medium: LB broth medium (Luria Broth Miller) Sigma • Inoculum: bacteria suspension
Compounds were solubilized in DMSO and the solution used to prepare the required range of concentrations. The final concentration of DMSO used in the assay was ≤1%.
(§4) Inoculum was prepared from a pre-culture of bacteria grown in liquid medium and diluted to the desired optical density (OD).
(§5) Compounds were evaluated for their ability to inhibit bacteria growth in liquid culture assay. The compounds were added in the desired concentrations to culture medium containing the bacteria suspension. After 24 h of incubation, the efficacy of compounds was determined by spectrometric measurement of bacteria growth. Inhibition was determined by comparing the absorbance values in wells containing the compounds with the absorbance in control wells without active ingredients.

[4] = system: Pseudomonas syringae pv. tomato; experiment: Pseudomonas syringae pv. tomato in vitro cell test; type: cell-based; conditions: 20 ppm of active ingredient; 24 h incubation
Method: Culture medium: LB broth medium (Luria Broth Miller) Sigma
Inoculum: bacteria suspension
Compounds were solubilized in DMSO and the solution used to prepare the required range of concentrations. The final concentration of DMSO used in the assay was 1%.
as §4, §5

Peronospora parasitica = experiment: In vivo preventive test on Peronospora parasitica (Crucifer downy mildew); conditions: 500 ppm of active ingredient, cabbage, evaluated 5 days after inoculation
Method: The tested active ingredients were prepared by homogenization in a mixture of acetone/Dimethyl sulfoxide/Tween®, and then diluted with water to obtain the desired active material concentration. The young plants of cabbage were treated by spraying the active ingredient prepared as described above. Control plants were treated only with an aqueous solution of acetone/Dimethyl sulfoxide/Tween®.
After 72 hours, the plants were contaminated by spraying the leaves with an aqueous suspension of Peronospora parasitica spores. The contaminated cabbage plants were incubated for 5 days at 20° C. and at 100% relative humidity.
The test was evaluated 5 days after the inoculation. 0% means an efficacy which corresponds to that of the control plants while an efficacy of 100% means that no disease was observed.
Compounds CMP2 and CMP3 were tested in an in vivo preventive test on Peronospora parasitica (Crucifer downy mildew) in the same conditions as described in Example G.

| Compound | relative fluorescence value ([1]; 75 ppm of compound) | relative fluorescence value ([1]; 300 ppm) | efficacy (inhibition of fungal growth) (Alternaria alternata) | efficacy (inhibition of fungal growth) [2] | efficacy (inhibition of bacteria growth) [3] | efficacy (inhibition of bacteria growth) [4] | efficacy (Peronospora parasitica) |
| --- | --- | --- | --- | --- | --- | --- | --- |
| CSCCC(NC(=O)c1sc(Cl)c(Cl)c1Cl)C(=O)O (stereo not drawn) [I.051] | above 2 | above 2 | ≤ 30% | ≤ 30% | ≤ 30% | ≤ 30% | – |
| CCOC(=O)C(NC(=O)c1sc(Cl)c(Cl)c1Cl)C(=O)OCC [I.006] | – | above 2 | ≤ 30% | ≤ 30% | ≤ 30% | ≤ 30% | – |
| CCOC(=O)C(COC)NC(=O)c1sc(Cl)c(Cl)c1Cl (stereo not drawn) [I.059] | – | – | – | – | – | – | 70% |
| N#CCNC(=O)CNC(=O)c1sc(Cl)c(Cl)c1Cl [I.062] | – | above 2 | ≤ 30% | ≤ 30% | ≤ 30% | ≤ 30% | – |
| O=C(CNC(=O)c1sc(Cl)c(Cl)c1Cl)SCc1ccccc1 [I.041] | above 2 | above 2 | ≤ 30% | ≤ 30% | ≤ 30% | ≤ 30% | – |
| CN(C)C(=S)C1(NC(=O)c2sc(Cl)c(Cl)c2Cl)CC1 [I.115] | above 2 | above 2 | ≤ 30% | ≤ 30% | ≤ 30% | ≤ 30% | – |
| CNC(=S)CNC(=O)c1sc(Cl)c(Cl)c1Cl [I.128] | above 2 | above 2 | ≤ 30% | ≤ 30% | ≤ 30% | ≤ 30% | – |
| CCSC(=O)[C@H](C)NC(=O)c1sc(Cl)c(Cl)c1Cl [I.089] | – | – | – | – | – | – | 70% |
| COC(=O)[C@H](CCC(=O)O)NC(=O)c1sc(Cl)c(Cl)c1Cl [I.075] | above 2 | above 2 | ≤ 30% | ≤ 30% | ≤ 30% | ≤ 30% | – |
| CCNC(=O)[C@H](C)NC(=O)c1sc(Cl)c(Cl)c1Cl [I.120] | – | – | – | – | – | – | 70% |
| CNC(=O)CNC(=O)c1sc(Cl)c(Cl)c1Cl [I.073] | – | above 2 | ≤ 30% | ≤ 30% | ≤ 30% | ≤ 30% | – |
| CCOC(=O)CCNC(=O)c1sc(Cl)c(Cl)c1Cl [I.026] | – | above 2 | ≤ 30% | ≤ 30% | ≤ 30% | ≤ 30% | – |
| CN(CC#N)C(=O)C1(NC(=O)c2sc(Cl)c(Cl)c2Cl)CC1 [I.052] | above 2 | above 2 | ≤ 30% | ≤ 30% | ≤ 30% | ≤ 30% | – |
| COC(=O)[C@H](C)NC(=S)c1sc(Cl)c(Cl)c1Cl [I.117] | – | – | – | – | – | – | 90% |
| N#CC(Cc1ccccc1)NC(=O)c1sc(Cl)c(Cl)c1Cl (stereo not drawn) [I.035] | – | above 2 | ≤ 30% | ≤ 30% | ≤ 30% | ≤ 30% | – |
| O=C(N[C@H]1CCOC1=O)c1sc(Cl)c(Cl)c1Cl [I.121] | above 2 | above 2 | ≤ 30% | ≤ 30% | ≤ 30% | ≤ 30% | – |
| O=C(NC(CO)C(=O)O)c1sc(Cl)c(Cl)c1Cl (stereo not drawn) [I.056] | above 2 | above 2 | ≤ 30% | ≤ 30% | ≤ 30% | ≤ 30% | – |
| COC(=O)C(CC(F)F)NC(=O)c1sc(Cl)c(Cl)c1Cl (stereo not drawn) [I.016] | – | – | – | – | – | – | 90% |
| CCOC(=O)CN(OC)C(=O)c1sc(Cl)c(Cl)c1Cl [I.018] | above 2 | above 2 | ≤ 30% | ≤ 30% | ≤ 30% | ≤ 30% | – |
| CCSC(=O)C(CC(C)C)NC(=O)c1sc(Cl)c(Cl)c1Cl (stereo not drawn) [I.039] | – | above 2 | ≤ 30% | ≤ 30% | ≤ 30% | ≤ 30% | – |
| N#CC1(NC(=O)c2sc(Cl)c(Cl)c2Cl)CCC(C2CCCCC2)CC1 (stereo not drawn) [I.134] | – | above 2 | ≤ 30% | ≤ 30% | ≤ 30% | ≤ 30% | – |
| NC(=O)CC(NC(=O)c1sc(Cl)c(Cl)c1Cl)C(=O)O (stereo not drawn) [I.001] | above 2 | above 2 | ≤ 30% | ≤ 30% | ≤ 30% | ≤ 30% | – |
| CCOC(=O)C(NC(=O)c1sc(Cl)c(Cl)c1Cl)C(F)(F)F (stereo not drawn) [I.123] | above 2 | above 2 | ≤ 30% | ≤ 30% | ≤ 30% | ≤ 30% | – |
| CCOC(=O)C(C)N(OC)C(=O)c1sc(Cl)c(Cl)c1Cl (stereo not drawn) [I.108] | – | – | – | – | – | – | 70% |
| COC(=O)C(Cc1c[nH]cn1)NC(=O)c1sc(Cl)c(Cl)c1Cl (stereo not drawn) [I.012] | – | – | – | – | – | – | 90% |
| CCOC(=O)C(CO)NC(=O)c1sc(Cl)c(Cl)c1Cl (stereo not drawn) [I.078] | – | – | – | – | – | – | 70% |
| COC(=O)[C@H](Cc1ccccc1)NC(=O)[C@H](CC(=O)O)NC(=O)c1sc(Cl)c(Cl)c1Cl [I.074] | – | above 2 | ≤ 30% | ≤ 30% | ≤ 30% | ≤ 30% | – |
| O=C(NC1(C(=O)NO)CC1)c1sc(Cl)c(Cl)c1Cl [I.050] | – | above 2 | ≤ 30% | ≤ 30% | ≤ 30% | ≤ 30% | – |
| CNC(=O)[C@H](C)NC(=O)c1sc(Cl)c(Cl)c1Cl [I.091] | – | – | – | – | – | – | 90% |
